Some of these results come from one statement about several compounds together.
Molecular target: Cyclin E1 (Homo sapiens, UniProt P24864+Q96SW2)
Experiment: Cyclin E1 Cellular Degradation Assay (MSD)
Format: cell-based
Set-up: endogenous in cells; host or cells: OVCAR3
Settings: degradation of Cyclin E1 over degradation of GSPT1, Table 18
In short: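 OVCAR3 cells treated with compound for 24 h at 37 °C, lysed, and cyclin E1 measured by MSD sandwich immunoassay (rabbit capture, mouse detection anti-CCNE1). Reference degrader at […] defined 110% response; DC50 and Dmax derived from response.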

Protein sequences, listed by entry. Tags and fused reporters are not part of them. Lines headed by an entry give the natural chain unless they say otherwise; changes in a name come on top.
UniProt P24864, whole entry: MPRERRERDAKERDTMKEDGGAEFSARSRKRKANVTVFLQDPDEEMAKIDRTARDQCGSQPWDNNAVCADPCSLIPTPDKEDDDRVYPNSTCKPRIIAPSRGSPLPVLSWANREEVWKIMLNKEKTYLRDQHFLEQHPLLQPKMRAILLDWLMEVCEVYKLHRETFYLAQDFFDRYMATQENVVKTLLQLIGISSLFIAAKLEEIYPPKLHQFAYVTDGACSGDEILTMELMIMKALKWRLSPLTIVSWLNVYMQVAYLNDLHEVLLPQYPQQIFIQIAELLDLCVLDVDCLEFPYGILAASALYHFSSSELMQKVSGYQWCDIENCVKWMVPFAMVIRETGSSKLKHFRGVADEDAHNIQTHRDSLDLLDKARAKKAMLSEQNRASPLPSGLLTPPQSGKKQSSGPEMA
UniProt Q96SW2: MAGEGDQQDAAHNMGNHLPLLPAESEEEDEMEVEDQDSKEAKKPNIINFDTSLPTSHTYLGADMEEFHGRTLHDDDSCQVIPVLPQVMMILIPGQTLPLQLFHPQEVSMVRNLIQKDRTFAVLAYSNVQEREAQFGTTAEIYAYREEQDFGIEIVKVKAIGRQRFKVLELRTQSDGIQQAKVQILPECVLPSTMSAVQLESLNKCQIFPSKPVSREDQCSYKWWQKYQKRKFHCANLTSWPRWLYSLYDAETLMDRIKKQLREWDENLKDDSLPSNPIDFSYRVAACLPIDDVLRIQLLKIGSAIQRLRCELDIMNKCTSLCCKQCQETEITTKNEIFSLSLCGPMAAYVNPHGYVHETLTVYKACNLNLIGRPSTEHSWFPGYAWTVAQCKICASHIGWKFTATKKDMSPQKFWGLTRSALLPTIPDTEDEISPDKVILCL

selectivity, ratio of GSPT1 DC50/Cyclin E1 DC50, at least 9:
CN(C)C(=O)COc1c(COC(=O)Nc2ccc(Oc3ccc(F)c(F)c3)cc2)ccc2c1C(=O)N(C1CCC(=O)NC1=O)C2 (stereo not drawn) [Example 175, {4-[(dimethylcarbamoyl)methoxy]-2-(2,6-dioxopiperidin-3-yl)-3-oxo-2,3-dihydro-1H-isoindol-5-yl}methyl N-[4-(3,4-difluorophenoxy)phenyl]carbamate]
NC(=O)COc1c(COC(=O)Nc2ccc(Oc3ccc(F)c(F)c3)cc2)ccc2c1C(=O)N(C1CCC(=O)NC1=O)C2 (stereo not drawn) [Example 176, [4-(carbamoylmethoxy)-2-(2,6-dioxopiperidin-3-yl)-3-oxo-2,3-dihydro-1H-isoindol-5-yl]methyl N-[4-(3,4-difluorophenoxy)phenyl]carbamate]
CCN(C)C(=O)COc1c(COC(=O)Nc2ccc(Oc3ccc(F)c(F)c3)cc2)ccc2c1C(=O)N(C1CCC(=O)NC1=O)C2 (stereo not drawn) [Example 177, [2-(2,6-dioxopiperidin-3-yl)-4-{[ethyl(methyl)carbamoyl]methoxy}-3-oxo-2,3-dihydro-1H-isoindol-5-yl]methyl N-[4-(3,4-difluorophenoxy)phenyl]carbamate]
O=C1CCC(N2Cc3ccc(COC(=O)Nc4ccc(Oc5ccc(F)c(F)c5)cc4)c(OCC(=O)N4CCOCC4)c3C2=O)C(=O)N1 (stereo not drawn) [Example 178, [2-(2,6-dioxopiperidin-3-yl)-4-[2-(morpholin-4-yl)-2-oxoethoxy]-3-oxo-2,3-dihydro-1H-isoindol-5-yl]methyl N-[4-(3,4-difluorophenoxy)phenyl]carbamate]
CC(=O)N1CCC(Oc2c(COC(=O)Nc3ccc(Oc4ccc(F)c(F)c4)cc3)ccc3c2C(=O)N(C2CCC(=O)NC2=O)C3)CC1 (stereo not drawn) [Example 179, {4-[(1-acetylpiperidin-4-yl)oxy]-2-(2,6-dioxopiperidin-3-yl)-3-oxo-2,3-dihydro-1H-isoindol-5-yl}methyl N-[4-(3,4-difluorophenoxy)phenyl]carbamate]
[2H]C1([2H])C(=O)NC(=O)[C@@]([2H])(N2Cc3ccc(COC(=O)Nc4ccc(Oc5ccc(F)c(F)c5)cc4)c(OC)c3C2=O)C1([2H])[2H] [Example 180, {2-[(3S)-2,6-dioxo(3,4,4,5,5-^2H5s)piperidin-3-yl]-4-methoxy-3-oxo-2,3-dihydro-1H-isoindol-5-yl}methyl N-[4-(3,4-difluorophenoxy)phenyl]carbamate]
